Results are given in words; binding and its absence hold for the method and conditions named. In cells and extracts the contact can be indirect. Some entries that bind do so weakly or less than the wild type.
Biological target: FLAG-tagged macro domain of ALC1 (FLAG-macro), wild type (human) (UniProt Q86WJ1)
Test: co-IP; U2OS cells co-transfected, grown in the presence of olaparib; lysate on anti-FLAG M2 affinity gel overnight at 4°C; immunoblot with anti-FLAG and anti-GFP

The chains behind the UniProt entries cited, without tags or fusion partners. Where a name states a change or a piece, a line headed by the entry shows the natural chain unless it says otherwise. A line that says so, or that is headed by a name, gives the form on record, which may keep a tag or linker. Residues count along the entry.
UniProt Q86WJ1: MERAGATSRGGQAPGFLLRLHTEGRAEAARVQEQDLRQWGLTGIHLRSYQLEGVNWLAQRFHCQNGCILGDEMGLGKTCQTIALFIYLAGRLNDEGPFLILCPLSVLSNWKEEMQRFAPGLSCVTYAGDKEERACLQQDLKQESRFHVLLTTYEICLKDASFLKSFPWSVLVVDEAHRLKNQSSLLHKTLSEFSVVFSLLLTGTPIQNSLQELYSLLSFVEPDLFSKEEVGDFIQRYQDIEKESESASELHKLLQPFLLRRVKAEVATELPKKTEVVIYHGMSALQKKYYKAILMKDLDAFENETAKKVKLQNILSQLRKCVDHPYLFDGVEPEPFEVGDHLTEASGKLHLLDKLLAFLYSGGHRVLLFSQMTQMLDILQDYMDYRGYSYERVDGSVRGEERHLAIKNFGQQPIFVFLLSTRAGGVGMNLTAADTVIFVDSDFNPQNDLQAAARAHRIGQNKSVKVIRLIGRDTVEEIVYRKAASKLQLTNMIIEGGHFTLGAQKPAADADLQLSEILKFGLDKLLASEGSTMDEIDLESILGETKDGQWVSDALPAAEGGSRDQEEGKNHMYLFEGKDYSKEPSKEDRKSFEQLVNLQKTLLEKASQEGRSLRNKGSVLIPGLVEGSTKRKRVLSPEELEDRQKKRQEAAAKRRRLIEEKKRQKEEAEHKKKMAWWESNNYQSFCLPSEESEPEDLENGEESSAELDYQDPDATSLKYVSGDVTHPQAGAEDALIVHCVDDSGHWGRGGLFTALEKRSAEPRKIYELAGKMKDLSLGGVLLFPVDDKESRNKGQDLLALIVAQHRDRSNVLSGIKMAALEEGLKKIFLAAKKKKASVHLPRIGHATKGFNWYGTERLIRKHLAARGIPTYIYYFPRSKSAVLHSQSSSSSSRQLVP
FLAG-tagged macro domain of ALC1 (FLAG-macro), wild type: residues 704-897 of Q86WJ1

| Substance | binding |
| --- | --- |
| YFP-tagged intact ALC1 (YFP-ALC1) R860W (from UniProt Q86WJ1 1-897) | binds |
| YFP-tagged intact ALC1 (YFP-ALC1) R857Q (from UniProt Q86WJ1 1-897) | binds |
| YFP-tagged intact ALC1 (YFP-ALC1), wild type (from UniProt Q86WJ1 1-897) | no binding |
| YFP-tagged intact ALC1 (YFP-ALC1) R857E (from UniProt Q86WJ1 1-897) | binds |

— PMC5745148, “Mechanistic Insights into Autoinhibition of the Oncogenic Chromatin Remodeler ALC1” (Molecular Cell, 2017)
